Assay results as given in the supplement of paper PMC12823440, “Inhibitors supercharge kinase turnover through native proteolytic circuits” (Nature, 2025).
Where a name gives a salt, the structure may show the parent alone. Some of the results follow. Hit calls seldom repeat between salt and free forms of one compound.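 In K562 cells expressing nanoluciferase-fused kinases, luminescence was recorded at 4 h intervals between 2 and 18 h, normalized as percent of control with DMSO at 100% and a positive control at 0%. A significant (2 sigma) signal drop marks a time point as decreased. The authors' rule for a hit is not shown and takes in more than the number of time points.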

Sequences of proteins named here, by UniProt entry; tags and fusion partners are left off. A change or cut given only in a name is not applied to a line headed by its entry.
UniProt Q9UQM7, whole entry: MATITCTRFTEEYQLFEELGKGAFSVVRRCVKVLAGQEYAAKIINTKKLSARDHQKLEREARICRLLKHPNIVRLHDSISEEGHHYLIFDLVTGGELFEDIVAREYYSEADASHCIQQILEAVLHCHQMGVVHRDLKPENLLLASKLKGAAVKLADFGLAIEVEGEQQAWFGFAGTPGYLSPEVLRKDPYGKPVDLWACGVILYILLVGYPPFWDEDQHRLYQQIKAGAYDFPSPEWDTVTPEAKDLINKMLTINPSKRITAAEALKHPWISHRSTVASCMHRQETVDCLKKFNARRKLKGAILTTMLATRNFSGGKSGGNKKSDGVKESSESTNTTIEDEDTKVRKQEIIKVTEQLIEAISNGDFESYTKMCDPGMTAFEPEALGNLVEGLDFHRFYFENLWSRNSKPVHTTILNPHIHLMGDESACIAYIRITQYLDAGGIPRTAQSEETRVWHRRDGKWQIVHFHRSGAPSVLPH
UniProt Q15131: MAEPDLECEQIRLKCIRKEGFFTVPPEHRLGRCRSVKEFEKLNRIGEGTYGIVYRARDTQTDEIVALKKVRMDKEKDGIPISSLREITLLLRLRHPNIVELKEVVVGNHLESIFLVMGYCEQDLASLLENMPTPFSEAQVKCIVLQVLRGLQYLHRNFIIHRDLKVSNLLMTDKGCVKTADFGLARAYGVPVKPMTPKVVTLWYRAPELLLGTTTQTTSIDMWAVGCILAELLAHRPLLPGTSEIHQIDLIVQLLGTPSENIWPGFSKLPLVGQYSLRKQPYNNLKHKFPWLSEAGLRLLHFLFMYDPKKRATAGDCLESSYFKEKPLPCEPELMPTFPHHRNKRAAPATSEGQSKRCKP
UniProt Q00526: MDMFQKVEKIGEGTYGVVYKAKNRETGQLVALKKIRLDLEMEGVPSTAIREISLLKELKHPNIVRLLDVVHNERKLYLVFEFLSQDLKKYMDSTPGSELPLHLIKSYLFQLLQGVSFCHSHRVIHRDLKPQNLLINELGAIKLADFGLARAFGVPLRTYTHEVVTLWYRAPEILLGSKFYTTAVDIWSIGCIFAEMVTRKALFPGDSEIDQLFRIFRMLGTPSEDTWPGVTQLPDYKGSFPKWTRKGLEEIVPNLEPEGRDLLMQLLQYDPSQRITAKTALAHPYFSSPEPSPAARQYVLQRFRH
UniProt Q00535, whole entry, looked up: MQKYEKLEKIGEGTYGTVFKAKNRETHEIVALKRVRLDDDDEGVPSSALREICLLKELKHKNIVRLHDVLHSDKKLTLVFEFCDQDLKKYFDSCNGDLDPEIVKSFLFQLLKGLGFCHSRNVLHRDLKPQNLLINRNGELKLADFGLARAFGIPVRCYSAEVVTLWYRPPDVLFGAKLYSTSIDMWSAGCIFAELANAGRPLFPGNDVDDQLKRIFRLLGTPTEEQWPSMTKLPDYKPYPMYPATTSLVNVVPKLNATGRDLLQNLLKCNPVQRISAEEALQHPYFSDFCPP
UniProt Q00534, whole entry: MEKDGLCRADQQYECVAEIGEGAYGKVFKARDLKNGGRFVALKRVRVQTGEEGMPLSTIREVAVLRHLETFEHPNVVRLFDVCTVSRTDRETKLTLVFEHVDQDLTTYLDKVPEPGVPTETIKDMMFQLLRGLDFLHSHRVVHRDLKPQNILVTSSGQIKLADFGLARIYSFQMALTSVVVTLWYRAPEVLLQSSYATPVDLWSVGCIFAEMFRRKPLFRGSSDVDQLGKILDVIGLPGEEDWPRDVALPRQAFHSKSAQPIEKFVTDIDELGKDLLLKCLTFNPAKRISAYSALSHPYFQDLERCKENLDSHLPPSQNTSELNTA
UniProt O96017, whole entry: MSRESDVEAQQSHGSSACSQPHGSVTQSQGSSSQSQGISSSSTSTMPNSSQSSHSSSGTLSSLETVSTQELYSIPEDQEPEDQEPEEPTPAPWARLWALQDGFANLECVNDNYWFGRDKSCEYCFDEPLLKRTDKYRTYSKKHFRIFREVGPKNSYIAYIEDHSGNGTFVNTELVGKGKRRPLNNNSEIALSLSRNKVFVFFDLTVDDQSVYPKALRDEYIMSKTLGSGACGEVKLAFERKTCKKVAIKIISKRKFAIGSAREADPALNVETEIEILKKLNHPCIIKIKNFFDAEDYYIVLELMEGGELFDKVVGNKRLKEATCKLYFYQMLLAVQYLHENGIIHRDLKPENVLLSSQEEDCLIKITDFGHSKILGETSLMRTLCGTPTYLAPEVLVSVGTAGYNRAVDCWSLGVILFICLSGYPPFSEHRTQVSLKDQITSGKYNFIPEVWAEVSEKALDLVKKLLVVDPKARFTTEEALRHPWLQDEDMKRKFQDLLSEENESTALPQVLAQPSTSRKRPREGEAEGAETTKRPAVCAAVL
UniProt P07333, whole entry: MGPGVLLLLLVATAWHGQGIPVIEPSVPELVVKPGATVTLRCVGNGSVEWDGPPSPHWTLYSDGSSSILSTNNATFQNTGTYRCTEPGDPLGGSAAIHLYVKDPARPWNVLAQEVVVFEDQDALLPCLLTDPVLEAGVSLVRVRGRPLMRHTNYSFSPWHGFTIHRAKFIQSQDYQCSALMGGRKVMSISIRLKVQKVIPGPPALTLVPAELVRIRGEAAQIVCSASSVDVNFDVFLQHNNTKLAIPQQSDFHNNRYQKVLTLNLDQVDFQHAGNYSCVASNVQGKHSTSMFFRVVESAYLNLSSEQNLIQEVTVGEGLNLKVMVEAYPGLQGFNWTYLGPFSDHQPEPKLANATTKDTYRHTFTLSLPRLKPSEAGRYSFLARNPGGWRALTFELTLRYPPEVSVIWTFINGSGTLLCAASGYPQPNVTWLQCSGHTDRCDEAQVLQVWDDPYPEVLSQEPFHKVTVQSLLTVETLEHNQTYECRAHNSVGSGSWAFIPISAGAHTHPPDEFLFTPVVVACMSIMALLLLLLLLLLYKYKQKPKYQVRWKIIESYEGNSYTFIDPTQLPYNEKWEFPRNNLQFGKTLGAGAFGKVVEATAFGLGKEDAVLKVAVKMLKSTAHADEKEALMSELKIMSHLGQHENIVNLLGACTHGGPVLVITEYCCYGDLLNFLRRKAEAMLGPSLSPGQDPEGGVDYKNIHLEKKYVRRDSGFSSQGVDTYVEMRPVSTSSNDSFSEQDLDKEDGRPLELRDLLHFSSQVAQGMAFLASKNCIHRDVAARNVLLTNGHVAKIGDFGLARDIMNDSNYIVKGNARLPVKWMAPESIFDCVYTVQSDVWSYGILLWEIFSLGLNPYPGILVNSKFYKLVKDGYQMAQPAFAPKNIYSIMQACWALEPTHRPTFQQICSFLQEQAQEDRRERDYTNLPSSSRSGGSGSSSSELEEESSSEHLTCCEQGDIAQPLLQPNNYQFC
UniProt P41240: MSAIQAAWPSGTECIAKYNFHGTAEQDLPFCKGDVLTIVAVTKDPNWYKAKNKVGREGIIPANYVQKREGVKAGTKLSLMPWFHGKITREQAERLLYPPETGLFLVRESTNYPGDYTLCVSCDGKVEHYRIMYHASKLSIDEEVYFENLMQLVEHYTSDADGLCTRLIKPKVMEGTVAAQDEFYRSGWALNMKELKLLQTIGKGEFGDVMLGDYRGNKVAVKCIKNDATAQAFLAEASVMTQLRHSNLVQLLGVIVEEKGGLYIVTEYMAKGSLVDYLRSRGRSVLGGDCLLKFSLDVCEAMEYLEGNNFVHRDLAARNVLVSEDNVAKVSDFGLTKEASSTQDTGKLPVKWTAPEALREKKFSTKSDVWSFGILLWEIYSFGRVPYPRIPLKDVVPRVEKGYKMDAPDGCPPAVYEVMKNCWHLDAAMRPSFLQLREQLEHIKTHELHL
UniProt P48729: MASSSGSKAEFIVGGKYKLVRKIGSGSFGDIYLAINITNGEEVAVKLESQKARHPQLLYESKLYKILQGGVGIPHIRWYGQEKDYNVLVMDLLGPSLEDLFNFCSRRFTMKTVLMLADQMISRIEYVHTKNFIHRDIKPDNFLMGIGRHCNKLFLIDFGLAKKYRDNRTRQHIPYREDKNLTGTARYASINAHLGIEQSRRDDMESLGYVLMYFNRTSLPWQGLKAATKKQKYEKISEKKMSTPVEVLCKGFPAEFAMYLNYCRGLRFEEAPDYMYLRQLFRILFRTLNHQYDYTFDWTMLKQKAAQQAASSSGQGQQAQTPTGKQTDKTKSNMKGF
UniProt Q08345: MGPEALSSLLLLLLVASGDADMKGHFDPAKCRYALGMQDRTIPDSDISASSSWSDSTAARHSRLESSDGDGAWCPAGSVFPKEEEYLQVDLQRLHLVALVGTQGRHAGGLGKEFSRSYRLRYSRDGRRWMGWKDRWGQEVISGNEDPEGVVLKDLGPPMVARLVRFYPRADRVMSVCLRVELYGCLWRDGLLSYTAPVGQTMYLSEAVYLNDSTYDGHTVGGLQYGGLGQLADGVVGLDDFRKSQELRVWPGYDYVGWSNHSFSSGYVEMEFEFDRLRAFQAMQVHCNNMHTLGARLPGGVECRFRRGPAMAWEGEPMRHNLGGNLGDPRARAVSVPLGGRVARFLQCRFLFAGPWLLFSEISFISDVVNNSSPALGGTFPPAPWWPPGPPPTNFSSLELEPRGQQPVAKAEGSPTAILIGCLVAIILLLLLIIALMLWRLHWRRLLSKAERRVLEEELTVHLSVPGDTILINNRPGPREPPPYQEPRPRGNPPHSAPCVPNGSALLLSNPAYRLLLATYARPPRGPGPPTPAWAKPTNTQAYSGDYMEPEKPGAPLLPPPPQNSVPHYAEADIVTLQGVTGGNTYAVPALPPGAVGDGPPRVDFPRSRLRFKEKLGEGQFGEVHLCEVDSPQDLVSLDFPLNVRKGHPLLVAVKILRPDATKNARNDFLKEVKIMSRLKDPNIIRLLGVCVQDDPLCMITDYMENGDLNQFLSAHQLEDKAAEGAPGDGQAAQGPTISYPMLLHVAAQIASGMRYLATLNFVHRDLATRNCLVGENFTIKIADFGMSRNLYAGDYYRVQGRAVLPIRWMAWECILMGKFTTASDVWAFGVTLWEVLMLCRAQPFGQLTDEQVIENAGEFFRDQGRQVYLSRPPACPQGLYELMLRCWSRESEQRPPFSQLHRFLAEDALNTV
UniProt Q9Y463, whole entry, looked up: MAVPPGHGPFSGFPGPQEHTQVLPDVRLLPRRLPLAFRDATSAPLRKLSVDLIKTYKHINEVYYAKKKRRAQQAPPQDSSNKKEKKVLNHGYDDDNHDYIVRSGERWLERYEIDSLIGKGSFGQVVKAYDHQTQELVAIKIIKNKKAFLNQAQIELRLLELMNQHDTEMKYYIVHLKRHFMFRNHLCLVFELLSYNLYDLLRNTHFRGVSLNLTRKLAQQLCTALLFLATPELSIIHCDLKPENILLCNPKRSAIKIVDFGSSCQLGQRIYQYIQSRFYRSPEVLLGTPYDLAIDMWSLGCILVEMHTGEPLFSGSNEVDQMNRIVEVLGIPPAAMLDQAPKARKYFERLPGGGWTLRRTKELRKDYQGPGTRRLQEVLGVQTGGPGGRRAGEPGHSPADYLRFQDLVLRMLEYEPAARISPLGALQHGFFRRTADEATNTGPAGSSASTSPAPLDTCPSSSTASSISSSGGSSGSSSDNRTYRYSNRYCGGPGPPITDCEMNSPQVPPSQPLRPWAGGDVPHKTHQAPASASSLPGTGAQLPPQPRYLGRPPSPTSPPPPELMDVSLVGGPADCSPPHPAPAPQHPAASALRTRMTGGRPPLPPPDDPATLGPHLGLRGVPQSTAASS
UniProt Q92630: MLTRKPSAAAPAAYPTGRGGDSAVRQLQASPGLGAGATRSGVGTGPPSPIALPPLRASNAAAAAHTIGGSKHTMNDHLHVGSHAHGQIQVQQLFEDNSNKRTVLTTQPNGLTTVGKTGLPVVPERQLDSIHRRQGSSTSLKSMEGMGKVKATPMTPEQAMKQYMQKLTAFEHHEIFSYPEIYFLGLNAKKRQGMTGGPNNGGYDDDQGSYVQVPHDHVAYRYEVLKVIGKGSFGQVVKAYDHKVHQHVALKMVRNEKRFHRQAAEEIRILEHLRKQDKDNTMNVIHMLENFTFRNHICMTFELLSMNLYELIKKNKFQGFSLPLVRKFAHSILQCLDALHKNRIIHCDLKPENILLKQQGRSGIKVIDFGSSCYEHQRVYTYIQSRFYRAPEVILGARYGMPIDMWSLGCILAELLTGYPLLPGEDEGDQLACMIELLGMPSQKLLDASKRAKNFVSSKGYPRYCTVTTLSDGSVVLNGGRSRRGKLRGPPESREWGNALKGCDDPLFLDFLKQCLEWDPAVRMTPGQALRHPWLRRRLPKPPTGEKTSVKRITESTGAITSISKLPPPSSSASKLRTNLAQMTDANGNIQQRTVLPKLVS

How the values were obtained:
Experiment in all cases: number of time points (of 5) at which kinase-Nluc abundance scored as decreased, DMSO-normalised (count); higher = more persistent destabilization
Settings in all cases: K562; 2-18 h
CAMK2A = CAMK2A (UniProt Q9UQM7)
CAMK2G = CAMK2G (UniProt Q13555)
CDK10 = CDK10 (UniProt Q15131)
CDK2 = CDK2 (UniProt P24941)
CDK3 = CDK3 (UniProt Q00526)
CDK5 = CDK5 (UniProt Q00535)
CDK6 = CDK6 (UniProt Q00534)
CHEK2 = CHEK2 (UniProt O96017)
CSF1R = CSF1R (UniProt P07333)
CSK = CSK (UniProt P41240)
CSNK1A1 = CSNK1A1 (UniProt P48729)
CSNK1D = CSNK1D (UniProt P48730)
DDR1 = DDR1 (UniProt Q08345)
DYRK1B = DYRK1B (UniProt Q9Y463)
DYRK2 = DYRK2 (UniProt Q92630)
EGFR = EGFR (UniProt P00533)
EGFR_G719S = EGFR_G719S (UniProt P00533)
EGFR_G719S_T790M = EGFR_G719S_T790M (UniProt P00533)
EGFR_L718V = EGFR_L718V (UniProt P00533)
EGFR_L858R = EGFR_L858R (UniProt P00533)

Row | SMILES | number of time points (CAMK2A) | number of time points (CAMK2G) | number of time points (CDK10) | number of time points (CDK2) | number of time points (CDK3) | number of time points (CDK5) | number of time points (CDK6) | number of time points (CHEK2) | number of time points (CSF1R) | number of time points (CSK) | number of time points (CSNK1A1) | number of time points (CSNK1D) | number of time points (DDR1) | number of time points (DYRK1B) | number of time points (DYRK2) | number of time points (EGFR) | number of time points (EGFR_G719S) | number of time points (EGFR_G719S_T790M) | number of time points (EGFR_L718V) | number of time points (EGFR_L858R)
1 | COc1ccc2c(OCc3nnc4ccc(-c5ccccc5)nn34)ccnc2c1 (2 µM) | 0 | 0 | 0 | 0 | 0 | 0 | 0 | 0 | 0 | 0 | 0 | 0 | 0 | 0 | 0 | 0 | 0 | 0 | 0 | 0
2 | COc1cc(OC2CCN(C)CC2)ccc1Nc1ncc2c(n1)n(C1CCCC1)c(=O)n2C (10 µM) | 0 | 0 | 0 | 0 | 0 | 0 | 0 | 0 | 0 | 0 | 0 | 0 | 0 | 0 | 0 | 0 | 0 | 0 | 0 | 0
3 | Cc1ccc(C(=O)Nc2ccc(Oc3cc4cnn(C)c4cc3-c3cn[nH]c3)c(F)c2)c(=O)n1-c1ccc(F)cc1 [Merestinib] (2.5 µM) | 0 | 0 | 0 | 0 | 0 | 0 | 0 | 0 | 0 | 0 | 0 | 0 | 0 | 0 | 0 | 0 | 0 | 0 | 0 | 0
4 | Nc1nc(F)nc2c1ncn2[C@@H]1O[C@H](CO)[C@@H](O)[C@@H]1O [Fludarabine] (10 µM) | 0 | 0 | 0 | 0 | 0 | 0 | 0 | 0 | 0 | 0 | 0 | 0 | 0 | 0 | 0 | 0 | 0 | 0 | 0 | 0
5 | Oc1cc(O)c2cc(O)c(-c3cc(O)c(O)c(O)c3)[o+]c2c1 [Delphinidin (chloride)] (10 µM) | 0 | 0 | 0 | 0 | 0 | 0 | 0 | 2 | 0 | 0 | 3 | 3 | 0 | 0 | 0 | 2 | 2 | 0 | 0 | 0
6 | COCCNc1nc2ccc(C#CC3(O)CCCCC3)cc2n1-c1ccnc(N)n1 (10 µM) | 0 | 0 | 0 | 0 | 0 | 0 | 0 | 0 | 0 | 0 | 0 | 0 | 0 | 0 | 0 | 0 | 0 | 0 | 0 | 0
7 | OCCn1cc(-c2ccc3c(c2)CC/C3=N\O)c(-c2ccncc2)n1 (10 µM) | 0 | 0 | 0 | 0 | 0 | 0 | 0 | 0 | 0 | 0 | 0 | 0 | 0 | 0 | 0 | 0 | 0 | 0 | 0 | 0
8 | C=CC(=O)Nc1cccc(Nc2nc(Nc3ccc(N4CCN(C(C)=O)CC4)cc3OC)ncc2C(F)(F)F)c1 [Rociletinib hydrobromide] (10 µM) | 0 | 0 | 0 | 0 | 0 | 0 | 0 | 0 | 0 | 0 | 0 | 0 | 0 | 0 | 0 | 0 | 0 | 0 | 0 | 0
9 | O=C1NC(=O)/C(=C\c2cccc(C(F)(F)F)c2)S1 (2.5 µM) | 0 | 0 | 0 | 0 | 0 | 0 | 0 | 0 | 0 | 0 | 0 | 0 | 0 | 0 | 0 | 0 | 0 | 0 | 0 | 0
10 | Cc1c(NC(=O)c2cccn(-c3ccc(F)cc3)c2=O)ccc(Oc2ccnc(NC(=O)C3CC3)c2)c1C (2 µM) | 0 | 1 | 0 | 0 | 0 | 0 | 0 | 0 | 3 | 0 | 0 | 0 | 2 | 1 | 3 | 0 | 0 | 0 | 0 | 0
11 | Cc1ccccc1-n1c([C@H](C)Nc2nc(N)nc3nc[nH]c23)nc2cccc(C)c2c1=O [CAL-130 (Hydrochloride)] (10 µM) | 0 | 0 | 0 | 0 | 0 | 0 | 0 | 0 | 0 | 0 | 0 | 0 | 0 | 0 | 0 | 0 | 0 | 0 | 0 | 0
12 | Cc1ccccc1-c1c2nccc(-c3ccc(F)cc3F)c2cc[n+]1[O-] (10 µM) | 0 | 0 | 0 | 0 | 0 | 0 | 0 | 0 | 0 | 0 | 0 | 0 | 0 | 0 | 0 | 0 | 0 | 0 | 0 | 0
